In all, about 300,000 compounds went through this assay and about 4,000 (1.3%) were called active. Inconclusive results, whose numbers are uncertain, are shown with a selection of clear calls.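 Rule for the calls: active = mean replicate score, as percent of positive control median, at least 50; inconclusive = mean below 50 but one replicate at or above 50; inactive = mean and every replicate below 50.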
experiment: kanamycin survival loss of SKKanGAS strain – BacTiter-Glo luminescence, streptokinase expression inhibitor project, primary screen (AID 1662);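 note: strain carries kanamycin resistance gene driven by streptokinase promoter and grows in 40 µg/ml kanamycin; loss of luminescence reflects streptokinase promoter inhibition or plain growth inhibition; 0% = median of DMSO wells and 100% = positive control at its reference dose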; details: S. pyogenes SKKanGAS, kanamycin growth, 6 h, at 7.5 µM, stronger effect = higher value

Structure (SMILES) | inhibition
COc1ccc2c(c1)c(CC(=O)NCc1cc([N+](=O)[O-])ccc1O)c(C)n2C(=O)c1ccc(Cl)cc1 | active: 51.5%
CC1CCCCN1C(=O)C(=O)c1cn(CC(=O)N2CCCC2)c2ccccc12 (centres undefined) | inactive: 1.1%
CCCN(Cc1ccco1)S(=O)(=O)c1ccc(OC)c(OC)c1 | inconclusive: 30%
CC(C)(C)c1cnnn1-c1ccc(C(=O)CCl)cc1 | inconclusive: 40.1%
O=C(O)c1ccc(CSC2CCCCC2)cc1 | inactive: -0.717%
CN(C)c1nc(SCc2ccccc2Cl)nc2c1CCCC2 | inconclusive: 45.8%
COc1cc(OC)cc(-c2cc3nc4c(c(N5CCN(c6ncccn6)CC5)n3n2)CCCC4)c1 | inconclusive: 46.5%
CCC(C)C(=O)Nc1nc(C)c(-c2csc(Nc3ccccc3OC)n2)s1 (centres undefined) | inactive: 18.4%
Cc1ccc(/C([O-])=C(/C(=S)NCc2ccco2)[n+]2ccccc2)cc1 | inactive: 3.61%
COc1ccc(C(=O)CSc2nnc(CNC(=O)c3ccc(S(=O)(=O)N(C)C)cc3)o2)cc1 | inconclusive: 43.7%
C=C(C)COc1ccc(-c2n[nH]c(C)c2-c2ccc(Br)cc2)c(O)c1 | active: 98.8%
COc1cnc(-c2ccccn2)nc1Sc1ccc(Cl)cc1 | inconclusive: 40.2%
CC(=O)c1ccc(NC(=S)Nc2ccc(Br)c(Cl)c2)cc1 | active: 94.6%
O=Nc1c(-c2c(O)[nH]c3cc(Br)ccc23)[nH]c2ccccc12 | active: 95.2%
COc1ccc(-c2cc(C3CCN(Cc4cccc(C(F)(F)F)c4)CC3)[nH]n2)cc1 | inconclusive: 42.6%
CCOc1ccccc1NC(=O)c1cccc(NC(=O)C2CCCC2)c1 | inactive: 6.96%
COc1ccc(Br)cc1/C=C/C(=O)NC(=S)Nc1ccc(Cl)c(C(=O)O)c1 | inconclusive: 43.2%
CCc1ccc(-c2cc(C(F)(F)F)n3nc(C(=O)Nc4c(C)nn(Cc5ccccc5C)c4C)cc3n2)s1 | inactive: 28.4%
CC(C)c1ccccc1OCC(=O)NC1CCCc2ccccc21 (centres undefined) | inconclusive: 49.2%
CC(C)(C)c1ccc(-c2noc(CCC(=O)Nc3cccnc3)n2)cc1 | inactive: 8.36%
c1ccc(-c2nc(-c3nccc4ccccc34)oc2-c2ccccc2)cc1 | inconclusive: 45.7%
O=S(=O)(c1cccc(S(=O)(=O)N2CCOCC2)c1)N1CCCCC1 | inconclusive: 15.5%
C[C@H](CCC(=O)NCC(=O)O)[C@H]1CC[C@H]2C3[C@H](O)C[C@@H]4C[C@H](O)CC[C@]4(C)[C@H]3C[C@H](O)[C@]12C (some centres undefined) | inconclusive: 43.7%
O=C(Nc1ccccc1Cl)/C(Cl)=C(\Cl)S(=O)c1ccccc1 (centres undefined) | active: 75.1%
Cc1ccc(NS(=O)(=O)c2ccc(Cl)c(C(=O)Nc3ccccc3-c3nc4ccccc4[nH]3)c2)cc1C | inconclusive: 43.7%
O=C1C2N=NN(CC(=O)N3N=C(c4cccc5ccccc45)CC3c3ccccc3)C2C(=O)N1c1ccccc1 (centres undefined) | inconclusive: 35.4%
Cc1cccc(-n2nc(C(=O)c3ccco3)cc(-c3nc4ccccc4[nH]3)c2=N)c1 | inconclusive: 44%

Structure (SMILES) | inhibition
COc1cc(NC(=O)C2CSC3(C)CCC(=O)N23)c(OC)cc1Cl (centres undefined) | inactive: -0.261%
Cc1cccc(C(C)C)c1NC(=O)Cc1ccc(S(=O)(=O)N2CCOCC2)s1 | inactive: -3.98%
CC1CCN(c2nc(-c3ccc(F)cc3)cc(C(F)(F)F)n2)CC1 | inconclusive: 28%
O=C(O)CSc1nnc(Cn2c(=O)sc3ccccc32)n1-c1cccc(Cl)c1 | inconclusive: 27.4%
Cc1cc(N2CCN(c3ccccc3Cl)CC2)n2cc(-c3ccccc3)nc2n1 | inconclusive: 44.8%
O=C(Nc1cc(Cl)cc(Cl)c1)Nc1cnccn1 | inconclusive: 40.4%
CN1CCN(c2ccc(NC(=O)c3ccc(-c4ccc(Cl)cc4)o3)cc2)CC1 | inconclusive: 35.6%
COC(=O)CSc1nnc(-c2cnccn2)n1C | inconclusive: 24%
O=[N+]([O-])c1ccc(O)c(/C=N/Nc2ncnc3c2cnn3-c2ccccc2)c1 | active: 87.9%
C/C(=N/Nc1nc(-c2ccccc2F)nc2ccccc12)c1ccccc1O | inconclusive: 49.5%
CCOC(=O)[C@@H]1[C@H]2COc3ccccc3[C@H]2N2C(=O)N(c3ccc(C(F)(F)F)cc3)C(=O)[C@]12C | inconclusive: 45.6%
COc1cc(/C=C/c2ccc3cccc(O)c3n2)cc(OC)c1OC | active: 96.2%
O=C(NC(=S)NNC(=O)c1ccc(Cl)cc1Cl)c1cccnc1 | inconclusive: 47.7%
Nc1nc(CSC(=S)N2CCN(c3ccccc3)CC2)nc(Nc2ccc(F)cc2)n1 | inactive: 15.3%
CC(C)CCn1c(=O)c(C(=O)N/N=C/c2cccc(F)c2)c(O)c2ccccc21 | active: 80.7%
CCN(CC(=O)NCc1cccs1)C(=O)c1ccccc1F | inconclusive: 20.3%
CCOC(=O)c1cc(-c2ccccc2)n(CC(=O)Nc2ccc(OC)cc2)c1C | inconclusive: 28.6%
Cn1cccc1CC(=O)NNC(=S)NC(=O)c1ccccc1Br | inconclusive: 49.1%
O=C(NNC1=C(C(=O)C(F)(F)F)CCC1)c1cccc(O)c1 | inactive: 22.1%
COC(=O)c1ccc(NC(=O)C(C)N2C(=O)c3ccccc3C2=O)cc1 (centres undefined) | inconclusive: 14%
Cc1[nH]n(S(=O)(=O)Cc2ccccc2)c(=O)c1N=Nc1ccccc1Cl | inactive: -11.1%
COc1ccc(Cn2c(-c3ccco3)nc3oc4ccccc4c(=O)c3c2=O)cc1 | inconclusive: 42.7%
Cc1ccc2nc(N(CCCN(C)C)C(=O)c3ccc(S(=O)(=O)N4CCCCCC4)cc3)sc2c1 | inconclusive: 48.8%
CC(C)n1c(=O)c2c(O)cc(=O)oc2c2ccccc21 | inconclusive: 37.5%
O=C(COC(=O)/C=C/c1ccc(Br)o1)NCCCN1CCCC1=O | inconclusive: 18.1%
COc1ccc([N+](=O)[O-])cc1NC(=S)NC(NC(=O)C(c1ccccc1)c1ccccc1)C(Cl)(Cl)Cl (centres undefined) | inconclusive: 42.1%
CC(C)c1nc(N2CCCC2)c(C#N)c2c1CCCC2 | active: 93.1%

Looked up by structure from the entries so far, 5 records:
Structure (SMILES) | inhibition
O=C(NNC1=C(C(=O)C(F)(F)F)CCC1)c1cccc(O)c1 | inactive: 22.1%
CC(C)CCn1c(=O)c(C(=O)N/N=C/c2cccc(F)c2)c(O)c2ccccc21 | active: 80.7%
CC(C)c1nc(N2CCCC2)c(C#N)c2c1CCCC2 | active: 93.1%
CCN(CC(=O)NCc1cccs1)C(=O)c1ccccc1F | inconclusive: 20.3%
CCOC(=O)[C@@H]1[C@H]2COc3ccccc3[C@H]2N2C(=O)N(c3ccc(C(F)(F)F)cc3)C(=O)[C@]12C | inconclusive: 45.6%
